{"source": "PubChem BioAssay AID1259425, University of Nebraska Medical Center – 2018", "purpose": "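Seek colon cancer weak points whose silencing resembles KSR1 loss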 (primary screen)", "system": "HCT116 human colon cancer cells", "knock-down reagent": "siRNA pool against human genes, 50 nM siRNA", "detection": "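After 50 nM siRNA pool, branched-DNA assay measures six marker transcripts per well, minus blank, normalised to the geometric mean of two housekeeping transcripts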", "scale": "BNIP3L mRNA: higher = more BNIP3L transcript after knockdown; NDRG1 mRNA: higher = more NDRG1 transcript after knockdown", "note": "In all, the deposit lists about 14,000 reagents; below is a random part of them. Not all columns of the deposit are shown. The record does not give: the time to read-out."}
{"gene symbol":"CTCF","PubChem SID":"SID363997356","BNIP3L mRNA, set 1":0.0896,"NDRG1 mRNA, set 1":0.287}
{"gene symbol":"GNA15","PubChem SID":"SID363993275","BNIP3L mRNA, set 1":0.226,"NDRG1 mRNA, set 1":0.193}
{"gene symbol":"LRRC1","PubChem SID":"SID364000882","BNIP3L mRNA, set 1":0.0734,"NDRG1 mRNA, set 1":0.117}
{"gene symbol":"APBB3","PubChem SID":"SID363996899","BNIP3L mRNA, set 1":0.115,"NDRG1 mRNA, set 1":0.142}
{"gene symbol":"UFC1","PubChem SID":"SID364000090","BNIP3L mRNA, set 1":0.206,"NDRG1 mRNA, set 1":0.151}
{"gene symbol":"BCL2L12","PubChem SID":"SID364004401","BNIP3L mRNA, set 1":0.0774,"NDRG1 mRNA, set 1":0.388}
{"gene symbol":"RNF4","PubChem SID":"SID363994090","BNIP3L mRNA, set 1":0.118,"NDRG1 mRNA, set 1":0.142}
{"gene symbol":"PLXNA3","PubChem SID":"SID364000331","BNIP3L mRNA, set 1":0.102,"NDRG1 mRNA, set 1":0.214}
{"gene symbol":"RAB4B","PubChem SID":"SID363999915","BNIP3L mRNA, set 1":0.0631,"NDRG1 mRNA, set 1":0.0841}
{"gene symbol":"TUBA1B","PubChem SID":"SID363996925","BNIP3L mRNA, set 1":0.16,"NDRG1 mRNA, set 1":0.626}
{"gene symbol":"SLC9D1","PubChem SID":"SID364000630","BNIP3L mRNA, set 1":0.131,"NDRG1 mRNA, set 1":0.314}
{"gene symbol":"NBEA","PubChem SID":"SID363999641","BNIP3L mRNA, set 1":0.189,"NDRG1 mRNA, set 1":0.479}

Entries above whose target name starts with R or r:
{"gene symbol":"RNF4","PubChem SID":"SID363994090","BNIP3L mRNA, set 1":0.118,"NDRG1 mRNA, set 1":0.142}
{"gene symbol":"RAB4B","PubChem SID":"SID363999915","BNIP3L mRNA, set 1":0.0631,"NDRG1 mRNA, set 1":0.0841}
